Results published in patent EP4663204A1, “COMPOUNDS USEFUL FOR THE MODULATION OF THE ACTIVITY OF STING” (Sulis Therapeutics ApS, priority 2024, dated 2025).
The structures given here were assigned with low confidence; some may be wrong.

By UniProt entry, the sequences of proteins in these tests, tags left out.
UniProt Q86WV6, whole entry: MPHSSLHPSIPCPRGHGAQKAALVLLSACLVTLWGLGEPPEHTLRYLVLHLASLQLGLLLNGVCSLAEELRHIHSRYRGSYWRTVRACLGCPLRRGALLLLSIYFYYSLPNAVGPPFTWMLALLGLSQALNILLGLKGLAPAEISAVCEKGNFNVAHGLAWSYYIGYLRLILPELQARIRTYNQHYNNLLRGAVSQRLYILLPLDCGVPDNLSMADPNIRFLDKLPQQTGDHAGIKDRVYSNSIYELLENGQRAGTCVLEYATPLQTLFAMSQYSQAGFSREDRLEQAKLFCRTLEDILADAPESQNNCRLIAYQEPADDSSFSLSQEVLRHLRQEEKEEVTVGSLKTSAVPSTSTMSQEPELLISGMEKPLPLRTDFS

Target: STING (Homo sapiens, UniProt Q86WV6)
Test: Inhibition of STING-agonist-induced IFN-β release in HFF-1 cells (ELISA)
Conditions: read-out: Inhibition of STING-agonist-induced IFN-β release in HFF-1 cells, EC50; 24h pre-incubation; 0.3 µM diABZI; supernatants after 6h; * incomplete inhibition
Procedure: To evaluate cellular effects of test compounds, we assessed inhibition of STING-agonist-induced IFN-β release in human foreskin fibroblasts HFF-1 cells (ATCC, SCRC-1041). Cells were seeded at a density of 10.000 cells/well in 96-well Nunclon Delta surface treated culture plate in DMEM growth medium (supplemented with 10% FBS, 1% Pen-strep). Cells were incubated over-night at 37°C 5% CO2 to allow adhesion. Next morning growth medium was renewed and a 7x concentration 3-step dilution series of test compounds (2,1% DMSO) diluted in growth medium were added to the appropriate well. Final DMSO concentration was 0.3%. Cells were further incubated for 24h followed by addition of 8x concentration of GSK STING agonist (CAS number: 2138299-34-8; diABZi c3*; diABZI), final concentration was 0.3 µM. […]
Cell supernatants were analysed for IFN-β release using DuoSet human IFN-β ELISA (R&D systems, DY-814) following manufactures protocol except using 96-well, half-volume plates from Corning and subsequently use half volume for all steps throughout the protocol. […] Signals were measured using BioTek Synergy H1 plate reader at 450nm and 570nm (reference).
Raw data values were quantified based on the standard curve using blank subtracted Δ450nm-570nm values generated using the Gen5 software connected to the plate reader. […]

`CCn1nc(C)cc1C(=O)Nc1nc2cc(C(N)=O)ccc2n1CCC(CCn1c(NC(=O)c2cc(C)nn2CC)nc2cc(C(N)=O)ccc21)OCC(=O)NCCOCCOCCOCCOCCC(=O)NCCOCCOCCOCCOCC(=O)N[C@H]1C[C@@H](C(=O)N[C@@H]2CCCc3ccccc32)N(C(=O)[C@@H](NC(=O)[C@H](C)NC)C2CCCCC2)C1` showed an EC50 of 1 to 5 µM.
